# Values from PubChem BioAssay AID493246 (Drosophila RNAi Screening Center, 2011)
# Purpose: 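Genes fly cells need to grow and stay alive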 (primary screen)
# Cell system: Drosophila Kc and S2R+ cells
# Reagents: long dsRNA against Drosophila genes
# Measured: 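Raw, unnormalised count of remaining cells in each well; per-plate z-scores of cell number underlie the calls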
# Direction: Kc cell number and S2R+ cell number: higher = more cells remaining
# Rule for the call: 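Counted as a hit if cell number falls by a z-score of at least 3 within its plate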
# The deposit covers about 21,000 reagents; shown is a random part of those that have a named target and a result. In the full data, 429 (2%) got an active call. 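Values are raw and not normalised between plates; calls rest on per-plate z-scores that were not deposited.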 Reagents against one gene are numbered here. The record does not give: the amount of reagent, the time to read-out.
target,reagent no.,"Kc cell number, rep 1","Kc cell number, rep 2","S2R+ cell number, rep 1","S2R+ cell number, rep 2",activity call
Mal-A5,1,1.40e6,1.44e6,1.19e6,1.24e6,inactive
CG11263,1,1.36e6,1.40e6,1.34e6,1.45e6,inactive
gkt,1,1.55e6,1.51e6,1.15e6,1.27e6,inactive
CG14352,1,1.66e6,1.63e6,1.08e6,1.26e6,inactive
CG16800,1,1.55e6,1.58e6,1.30e6,1.45e6,inactive
CG32037,1,1.39e6,1.28e6,1.23e6,1.34e6,inactive
CG5674,1,1.39e6,1.42e6,9.16e5,1.08e6,inactive
Drat,1,9.13e5,1.16e6,6.49e5,5.22e5,inactive
Jhbp7,1,1.70e6,1.77e6,1.02e6,1.10e6,inactive
Gyc89Db,1,1.70e6,1.88e6,1.20e6,1.31e6,inactive
CG7903,1,1.50e6,1.57e6,1.09e6,1.21e6,inactive
Atf6,1,1.53e6,1.62e6,1.02e6,1.15e6,inactive
Atf6,2,1.55e6,1.40e6,1.30e6,1.27e6,inactive
CG34039,1,1.44e6,1.59e6,1.10e6,1.34e6,inactive
CG7377,1,1.41e6,1.39e6,1.26e6,1.32e6,inactive
ergic53,1,1.45e6,1.39e6,1.09e6,1.20e6,inactive
scaf,1,1.27e6,1.32e6,1.05e6,1.15e6,inactive
SiaT,1,1.60e6,1.66e6,1.34e6,1.49e6,inactive
CG14630,1,1.61e6,1.57e6,1.07e6,1.22e6,inactive
CG14630,2,1.52e6,1.49e6,1.06e6,1.21e6,inactive
LanB1,1,1.35e6,1.39e6,5.48e5,5.80e5,inactive
CG1889,1,6.59e5,,9.42e5,,inactive
CG30083,1,1.65e6,1.64e6,1.04e6,1.21e6,inactive
Ubc6,1,1.72e6,1.73e6,1.16e6,1.24e6,inactive
Ir41a,1,1.48e6,1.62e6,1.02e6,1.16e6,inactive
Ir41a,2,1.61e6,1.65e6,1.22e6,1.32e6,inactive
CG6675,1,1.68e6,1.66e6,1.24e6,3.11e5,inactive
CG12560,1,1.51e6,1.62e6,1.22e6,1.36e6,inactive
APC4,1,6.67e5,,7.92e5,,inactive
Yp1,1,1.54e6,1.52e6,1.09e6,1.22e6,inactive
CG33258,1,1.46e6,1.52e6,1.17e6,1.27e6,inactive
CG11380,1,1.37e6,1.47e6,8.25e5,9.32e5,inactive
Tango4,1,5.28e5,,7.64e5,,inactive
CIAPIN1,1,1.32e6,1.40e6,1.23e6,1.28e6,inactive
CG30416,1,1.66e6,1.78e6,1.20e6,1.33e6,inactive
CG15879,1,1.49e6,1.34e6,1.01e6,1.29e6,inactive
Sec10,1,1.43e6,1.52e6,1.03e6,1.07e6,inactive
CR14499 (retired record),1,1.49e6,1.55e6,1.15e6,1.25e6,inactive
CG42597,1,5.19e5,,8.21e5,,inactive
Gpdh2,1,1.65e6,1.69e6,1.35e6,1.48e6,inactive
mRpS26,1,1.17e6,1.25e6,1.17e6,1.30e6,inactive
Rassf,1,1.54e6,1.57e6,1.21e6,1.25e6,inactive
CRIF,1,1.32e6,1.47e6,1.04e6,1.19e6,inactive
Ir25a,1,1.44e6,1.41e6,1.18e6,1.28e6,inactive
RabX1,1,1.44e6,1.51e6,1.25e6,1.36e6,inactive
CG6356,1,1.48e6,1.46e6,9.79e5,1.07e6,inactive
CG5641,1,1.57e6,1.66e6,1.43e6,1.48e6,inactive
RpS8,1,9.31e5,9.55e5,7.36e5,8.50e5,active
CG13919,1,1.49e6,1.37e6,8.55e5,1.04e6,inactive
Stoml2,1,1.56e6,1.65e6,9.54e5,1.03e6,inactive
CG6659,1,1.77e6,1.78e6,1.13e6,1.24e6,inactive
Rgk1 (retired record),1,1.39e6,1.53e6,1.15e6,1.21e6,inactive
Rgk1 (retired record),2,4.85e5,1.31e6,4.69e5,5.53e5,active
CG17633,1,1.67e6,1.67e6,1.20e6,1.47e6,inactive
RpS16,1,1.14e6,1.20e6,9.90e5,1.07e6,active
CG5883,1,1.29e6,1.26e6,1.20e6,1.26e6,inactive
CG17734,1,1.41e6,1.38e6,1.02e6,1.18e6,inactive
CG8301,1,1.62e6,1.66e6,1.39e6,1.46e6,inactive
homer,1,1.21e6,1.31e6,7.17e5,5.50e5,inactive
